PMC11704088
These are yes or no findings as the source states them, for the method shown. Binding seen in cells or lysates may run through a third protein. Some binding calls cover weakened binding; strength is not graded here.

Sequences of proteins named here, by UniProt entry; tags and fusion partners are left off.
UniProt P17931: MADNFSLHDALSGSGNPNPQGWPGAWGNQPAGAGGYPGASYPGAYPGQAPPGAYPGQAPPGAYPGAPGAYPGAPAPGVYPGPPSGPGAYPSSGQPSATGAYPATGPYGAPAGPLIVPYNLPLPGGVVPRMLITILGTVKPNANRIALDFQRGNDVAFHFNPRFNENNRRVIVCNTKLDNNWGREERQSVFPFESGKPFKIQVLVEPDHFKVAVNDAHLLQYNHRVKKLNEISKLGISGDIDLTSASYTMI

Target: galectin-3 (human (endogenous in human brain vascular smooth muscle cells)) (UniProt P17931)
Test: co-IP; lysate of VSMCs with protease inhibitors incubated with anti-galectin-3 antibody or IgG and magnetic beads at 4 °C for 12 h; beads washed with lysis buffer; eluate analysed by Western blot; for TLR4, cells transfected with mimic-NC or tRF-AspGTC mimic

B1: tripartite motif 29 (protein, UniProt Q14134 1-588)
chain: MEAADASRSNGSSPEARDARSPSGPSGSLENGTKADGKDAKTTNGHGGEAAEGKSLGSALKPGEGRSALFAGNEWRRPIIQFVESGDDKNSNYFSMDSMEGKRSPYAGLQLGAAKKPPVTFAEKGELRKSIFSESRKPTVSIMEPGETRRNSYPRADTGLFSRSKSGSEEVLCDSCIGNKQKAVKSCLVCQASFCELHLKPHLEGAAFRDHQLLEPIRDFEARKCPVHGKTMELFCQTDQTCICYLCMFQEHKNHSTVTVEEAKAEKETELSLQKEQLQLKIIEIEDEAEKWQKEKDRIKSFTTNEKAILEQNFRDLVRDLEKQKEEVRAALEQREQDAVDQVKVIMDALDERAKVLHEDKQTREQLHSISDSVLFLQEFGALMSNYSLPPPLPTYHVLLEGEGLGQSLGNFKDDLLNVCMRHVEKMCKADLSRNFIERNHMENGGDHRYVNNYTNSFGGEWSAPDTMKRYSMYLTPKGGVRTSYQPSSPGRFTKETTQKNFNNLYGTKGNYTSRVWEYSSSIQNSDNDLPVVQGSSSFSLKGYPSLMRSQSPKAQPQTWKSGKQTMLSHYRPFYVNKGNGIGSNEAP
For B1, the binding was “binds”.
